Publication PMC10925063, “FUS unveiled in mitochondrial DNA repair and targeted ligase-1 expression rescues repair-defects in FUS-linked motor neuron disease” (Nature Communications, 2024)
No constants are given. Whether binding was seen depends on the method and setting. Binding seen in cells or lysates may run through a third protein. Some entries that bind do so weakly or less than the wild type.

Protein sequences, listed by entry. Tags and fused reporters are not part of them.
UniProt P35637: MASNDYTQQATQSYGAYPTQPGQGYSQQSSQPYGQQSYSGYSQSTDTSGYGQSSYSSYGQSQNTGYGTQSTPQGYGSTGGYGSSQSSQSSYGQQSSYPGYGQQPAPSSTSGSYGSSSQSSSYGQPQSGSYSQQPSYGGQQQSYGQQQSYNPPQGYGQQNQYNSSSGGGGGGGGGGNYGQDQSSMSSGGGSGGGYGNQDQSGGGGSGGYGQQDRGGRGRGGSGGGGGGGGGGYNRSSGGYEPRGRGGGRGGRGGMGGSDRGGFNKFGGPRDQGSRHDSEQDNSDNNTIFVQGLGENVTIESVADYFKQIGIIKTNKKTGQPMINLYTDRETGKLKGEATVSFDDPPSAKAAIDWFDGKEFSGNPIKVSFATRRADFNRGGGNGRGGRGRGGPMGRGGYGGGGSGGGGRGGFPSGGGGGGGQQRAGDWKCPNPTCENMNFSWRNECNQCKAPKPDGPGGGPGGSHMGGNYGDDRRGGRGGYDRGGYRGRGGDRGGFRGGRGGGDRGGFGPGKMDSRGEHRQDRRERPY

How the values were obtained:
[1] = molecular target: Fused in Sarcoma (FUS), endogenous wild type (human (endogenous in HEK293, fibroblasts, iPSC-derived motor neurons and NPSCs)) (UniProt P35637); test: co-IP; endogenous FUS precipitated with anti-FUS antibody and protein A/G PLUS agarose, immunoblot for Lig3; patient derived NPSC cells; lysis in 0.2% NP-40, 150 mM NaCl, 25 mM Tris-HCl, 0.1% SDS
[2] = molecular target: Fused in Sarcoma (FUS), endogenous wild type (human (endogenous in HEK293, fibroblasts, iPSC-derived motor neurons and NPSCs)) (UniProt P35637); test: proximity ligation; Duolink in situ PLA of FUS vs Lig3 in control and patient fibroblasts (Supplementary Fig. 5a); with or without GO
[3] = molecular target: Fused in Sarcoma (FUS), endogenous wild type (human (endogenous in HEK293, fibroblasts, iPSC-derived motor neurons and NPSCs)) (UniProt P35637); test: co-IP; endogenous FUS precipitated with anti-FUS antibody and protein A/G PLUS agarose, immunoblot for Lig3; HEK293 cells with and without GO; lysis in 0.2% NP-40, 150 mM NaCl, 25 mM Tris-HCl, 0.1% SDS

Measured: binding

B1: mtDNA Ligase IIIα (mtLig3) (enzyme, UniProt P49916 43-1009, looked up)
chain: LLHGHPLFLRRKPVLSFQGSHLRSRATYLVFLPGLHVGLCSGPCEMAEQRFCVDYAKRGTAGCKKCKEKIVKGVCRIGKVVPNPFSESGGDMKEWYHIKCMFEKLERARATTKKIEDLTELEGWEELEDNEKEQITQHIADLSSKAAGTPKKKAVVQAKLTTTGQVTSPVKGASFVTSTNPRKFSGFSAKPNNSGEAPSSPTPKRSLSSSKCDPRHKDCLLREFRKLCAMVADNPSYNTKTQIIQDFLRKGSAGDGFHGDVYLTVKLLLPGVIKTVYNLNDKQIVKLFSRIFNCNPDDMARDLEQGDVSETIRVFFEQSKSFPPAAKSLLTIQEVDEFLLRLSKLTKEDEQQQALQDIASRCTANDLKCIIRLIKHDLKMNSGAKHVLDALDPNAYEAFKASRNLQDVVERVLHNAQEVEKEPGQRRALSVQASLMTPVQPMLAEACKSVEYAMKKCPNGMFSEIKYDGERVQVHKNGDHFSYFSRSLKPVLPHKVAHFKDYIPQAFPGGHSMILDSEVLLIDNKTGKPLPFGTLGVHKKAAFQDANVCLFVFDCIYFNDVSLMDRPLCERRKFLHDNMVEIPNRIMFSEMKRVTKALDLADMITRVIQEGLEGLVLKDVKGTYEPGKRHWLKVKKDYLNEGAMADTADLVVLGAFYGQGSKGGMMSIFLMGCYDPGSQKWCTVTKCAGGHDDATLARLQNELDMVKISKDPSKIPSWLKVNKIYYPDFIVPDPKKAAVWEITGAEFSKSEAHTADGISIRFPRCTRIRDDKDWKSATNLPQLKELYQLSKEKADFTVVAGDEGSSTTGGSSEENKGPSGSAVSRKAPSKPSASTKKAEGKLSNSNSKDGNMQTAKPSAMKVGEKLATKSSPVKVGEKRKAADETLCQTKVLLDIFTGVRLYLPPSTPDFSRLRRYFVAFDGDLVQEFDMTSATHVLGSRDKNPAAQQVSPEWIWACIRKRRLVAPC
notes: DNA ligase IIIα, human, endogenous; also called LigIII; mitochondrial version of Lig3; source: endogenous, in HEK293 cells, fibroblasts, iPSC-derived motor neurons and NPSCs
binds: all assays above
